According to paper PMC4345284:

Biological target: STAG2/SA-2 (chicken (endogenous in DT40))
Assay: cross-linking; in situ: isolated mitotic chromosomes of wild-type DT40 cross-linked with 30-fold weight excess of BS3, 2 h on ice; micrococcal nuclease, 2 M NaCl extraction (scaffold fraction), SDS-PAGE, SCX, targeted mass spectrometry with an inclusion list

binding: binds
B1: CENP-M (protein, UniProt Q1T7B9 1-177)
chain: MAVLRPFDKLPELNSATILLVGAEGGPQQQLAEAMLREKKDFNINIHLASSLPLPSERDHLRPRIDLIAFVIDIKSKYSLKNVQASLAYVDVRFFLGKVCFLVTGVGRANNCSVEMNAIWKLGEDYCSPVIFCELELEGIRVATAQRLLRMLQICAGRVPGVSALYFSLLMRNSAGD

Results are given in words; binding and its absence hold for the method and conditions named. Binding seen in cells or lysates may run through a third protein. Binding calls can cover weak binding; strength is not graded here.
